Values of other authors as cited in patent publication US12533377B2 (OXYMO TECHNOLOGIES INC., priority 2016, dated 2026).
For at least one compound, name, drawing or mass did not settle the structure.

Details: cited from earlier work

SMILES | pK1 | pK2 | pK3 | pK4
O=C(O)CN(CCOCCOCCN(CC(=O)O)CC(=O)O)CC(=O)O [EGTA, ethylene glycol-bis(2-aminoethylether)-N,N,N′,N′-tetraacetic acid] | 2.00 | 2.65 | 8.85 | 9.46
O=C(O)CN(CC(=O)O)c1ccccc1OCCOc1ccccc1N(CC(=O)O)CC(=O)O [BAPTA, 1,2-bis(o-aminophenoxy)ethane-N,N,N,N′tetraacetic acid] | < 4 | < 4 | 5.47 | 6.36
